Reference: PubChem BioAssay AID1159584 (Peter MacCallum Cancer Centre, 2016)

Screen: 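Knock-downs that harm CDH1-null cells more than parental MCF10A cells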 (primary screen)
Cells: human MCF10A breast epithelial cells, parental and CDH1-null
Reagents: siRNA against human genes
Detection: 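Cell viability by CellTiter-Glo ATP luminescence, each line scaled to the mean of mock wells across plates, then CDH1-null over parental ratio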
Direction: CDH1-null / parental viability ratio: higher = CDH1-null cells survive relatively better than parental; CDH1-null viability vs mock: higher = more viable CDH1-null cells
Units: CDH1-null viability vs mock in fraction of mock
In all, the deposit lists about 18,000 reagents; this is a part drawn at random. Not all columns of the deposit are shown. Not stated in the record: the amount of reagent, the time to read-out.

What did the screen give for CRYBB2 (crystallin beta B2)?
CDH1-null / parental viability ratio: 0.93; CDH1-null viability vs mock: 0.64

With IL38 (interleukin 38), what was measured?
CDH1-null / parental viability ratio: 0.96; CDH1-null viability vs mock: 0.64

For VXN (vexin), what does the deposit list?
CDH1-null / parental viability ratio: 0.87; CDH1-null viability vs mock: 0.69

What did the screen give for STK32B (serine/threonine kinase 32B)?
CDH1-null / parental viability ratio: 1.07; CDH1-null viability vs mock: 0.95

With SGMS2 (sphingomyelin synthase 2), what does the deposit list?
CDH1-null / parental viability ratio: 0.91; CDH1-null viability vs mock: 1.01

With SLC25A36, how do the results read?
CDH1-null / parental viability ratio: 1.05; CDH1-null viability vs mock: 0.82

For PRRC1 (proline rich coiled-coil 1), what does the deposit list?
CDH1-null / parental viability ratio: 0.98; CDH1-null viability vs mock: 0.84

How did the screen score MRPS15 (mitochondrial ribosomal protein S15)?
CDH1-null / parental viability ratio: 1.24; CDH1-null viability vs mock: 0.88

With SHMT2 (serine hydroxymethyltransferase 2), what does the deposit list?
CDH1-null / parental viability ratio: 1.09; CDH1-null viability vs mock: 0.87

Which result is listed for FBXL12 (F-box and leucine rich repeat protein 12)?
CDH1-null / parental viability ratio: 0.96; CDH1-null viability vs mock: 0.88

What is on record for ZNF644 (zinc finger protein 644)?
CDH1-null / parental viability ratio: 0.98; CDH1-null viability vs mock: 0.86

What did the screen give for LY6G6F (lymphocyte antigen 6 family member G6F)?
CDH1-null / parental viability ratio: 1.12; CDH1-null viability vs mock: 0.86

For TAFA4 (TAFA chemokine like family member 4), how do the results read?
CDH1-null / parental viability ratio: 1.13; CDH1-null viability vs mock: 0.97

How did the screen score TAS2R40 (taste 2 receptor member 40)?
CDH1-null / parental viability ratio: 0.93; CDH1-null viability vs mock: 0.51

How did the screen score MTFR1 (mitochondrial fission regulator 1)?
CDH1-null / parental viability ratio: 0.99; CDH1-null viability vs mock: 0.78

What did the screen give for TLE6 (TLE family member 6, subcortical maternal complex member)?
CDH1-null / parental viability ratio: 1.16; CDH1-null viability vs mock: 0.66

What did the screen give for DENND2A (DENN domain containing 2A)?
CDH1-null / parental viability ratio: 1; CDH1-null viability vs mock: 0.9

How did the screen score DTX1 (deltex E3 ubiquitin ligase 1)?
CDH1-null / parental viability ratio: 0.92; CDH1-null viability vs mock: 0.7

What did the screen give for SALL3 (spalt like transcription factor 3)?
CDH1-null / parental viability ratio: 0.92; CDH1-null viability vs mock: 0.92

How did the screen score MYO1E (myosin IE)?
CDH1-null / parental viability ratio: 1.11; CDH1-null viability vs mock: 0.88

With ZMYND8 (zinc finger MYND-type containing 8), what was measured?
CDH1-null / parental viability ratio: 0.86; CDH1-null viability vs mock: 0.72

For DIP2C (DIP2 acetate--CoA ligase C (putative)), how do the results read?
CDH1-null / parental viability ratio: 0.94; CDH1-null viability vs mock: 1.06

With PLEKHN1 (pleckstrin homology domain containing N1), what does the deposit list?
CDH1-null / parental viability ratio: 1.4; CDH1-null viability vs mock: 0.84

Which result is listed for SLC2A10?
CDH1-null / parental viability ratio: 1.32; CDH1-null viability vs mock: 1
